No constants are given. Whether binding was seen depends on the method and setting. Binding seen in cells or lysates may run through a third protein. Some entries that bind do so weakly or less than the wild type.
What was measured:
[1] = target: T1, Deltex2 (mouse (endogenous in C2C12)) (UniProt Q8R3P2); assay: co-IP; Supplementary Figure S3C; cells and precipitating antibody not shown
T1 sequence: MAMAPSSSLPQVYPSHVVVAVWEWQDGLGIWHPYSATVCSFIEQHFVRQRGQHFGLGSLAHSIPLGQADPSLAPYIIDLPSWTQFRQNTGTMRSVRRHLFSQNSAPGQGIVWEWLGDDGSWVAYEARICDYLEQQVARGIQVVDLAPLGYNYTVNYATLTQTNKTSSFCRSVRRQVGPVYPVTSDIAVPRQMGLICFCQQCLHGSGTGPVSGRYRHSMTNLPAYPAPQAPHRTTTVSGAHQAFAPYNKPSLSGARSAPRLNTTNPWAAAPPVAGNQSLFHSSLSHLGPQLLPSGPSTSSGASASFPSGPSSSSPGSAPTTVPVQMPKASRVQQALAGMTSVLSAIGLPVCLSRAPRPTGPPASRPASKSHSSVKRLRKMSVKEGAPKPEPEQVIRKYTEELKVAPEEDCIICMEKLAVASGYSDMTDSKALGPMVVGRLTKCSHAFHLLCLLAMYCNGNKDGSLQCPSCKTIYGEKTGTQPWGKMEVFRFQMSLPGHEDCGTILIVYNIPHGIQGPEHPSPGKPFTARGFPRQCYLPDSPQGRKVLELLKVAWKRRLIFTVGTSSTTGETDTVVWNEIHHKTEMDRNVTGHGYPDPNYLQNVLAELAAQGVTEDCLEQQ

Sequences of proteins named here, by UniProt entry; tags and fusion partners are left off. A change or cut given only in a name is not applied to a line headed by its entry. A line that says so, or that is headed by a name, gives the form on record, which may keep a tag or linker.
JMJD1C (Q69ZK6, form named): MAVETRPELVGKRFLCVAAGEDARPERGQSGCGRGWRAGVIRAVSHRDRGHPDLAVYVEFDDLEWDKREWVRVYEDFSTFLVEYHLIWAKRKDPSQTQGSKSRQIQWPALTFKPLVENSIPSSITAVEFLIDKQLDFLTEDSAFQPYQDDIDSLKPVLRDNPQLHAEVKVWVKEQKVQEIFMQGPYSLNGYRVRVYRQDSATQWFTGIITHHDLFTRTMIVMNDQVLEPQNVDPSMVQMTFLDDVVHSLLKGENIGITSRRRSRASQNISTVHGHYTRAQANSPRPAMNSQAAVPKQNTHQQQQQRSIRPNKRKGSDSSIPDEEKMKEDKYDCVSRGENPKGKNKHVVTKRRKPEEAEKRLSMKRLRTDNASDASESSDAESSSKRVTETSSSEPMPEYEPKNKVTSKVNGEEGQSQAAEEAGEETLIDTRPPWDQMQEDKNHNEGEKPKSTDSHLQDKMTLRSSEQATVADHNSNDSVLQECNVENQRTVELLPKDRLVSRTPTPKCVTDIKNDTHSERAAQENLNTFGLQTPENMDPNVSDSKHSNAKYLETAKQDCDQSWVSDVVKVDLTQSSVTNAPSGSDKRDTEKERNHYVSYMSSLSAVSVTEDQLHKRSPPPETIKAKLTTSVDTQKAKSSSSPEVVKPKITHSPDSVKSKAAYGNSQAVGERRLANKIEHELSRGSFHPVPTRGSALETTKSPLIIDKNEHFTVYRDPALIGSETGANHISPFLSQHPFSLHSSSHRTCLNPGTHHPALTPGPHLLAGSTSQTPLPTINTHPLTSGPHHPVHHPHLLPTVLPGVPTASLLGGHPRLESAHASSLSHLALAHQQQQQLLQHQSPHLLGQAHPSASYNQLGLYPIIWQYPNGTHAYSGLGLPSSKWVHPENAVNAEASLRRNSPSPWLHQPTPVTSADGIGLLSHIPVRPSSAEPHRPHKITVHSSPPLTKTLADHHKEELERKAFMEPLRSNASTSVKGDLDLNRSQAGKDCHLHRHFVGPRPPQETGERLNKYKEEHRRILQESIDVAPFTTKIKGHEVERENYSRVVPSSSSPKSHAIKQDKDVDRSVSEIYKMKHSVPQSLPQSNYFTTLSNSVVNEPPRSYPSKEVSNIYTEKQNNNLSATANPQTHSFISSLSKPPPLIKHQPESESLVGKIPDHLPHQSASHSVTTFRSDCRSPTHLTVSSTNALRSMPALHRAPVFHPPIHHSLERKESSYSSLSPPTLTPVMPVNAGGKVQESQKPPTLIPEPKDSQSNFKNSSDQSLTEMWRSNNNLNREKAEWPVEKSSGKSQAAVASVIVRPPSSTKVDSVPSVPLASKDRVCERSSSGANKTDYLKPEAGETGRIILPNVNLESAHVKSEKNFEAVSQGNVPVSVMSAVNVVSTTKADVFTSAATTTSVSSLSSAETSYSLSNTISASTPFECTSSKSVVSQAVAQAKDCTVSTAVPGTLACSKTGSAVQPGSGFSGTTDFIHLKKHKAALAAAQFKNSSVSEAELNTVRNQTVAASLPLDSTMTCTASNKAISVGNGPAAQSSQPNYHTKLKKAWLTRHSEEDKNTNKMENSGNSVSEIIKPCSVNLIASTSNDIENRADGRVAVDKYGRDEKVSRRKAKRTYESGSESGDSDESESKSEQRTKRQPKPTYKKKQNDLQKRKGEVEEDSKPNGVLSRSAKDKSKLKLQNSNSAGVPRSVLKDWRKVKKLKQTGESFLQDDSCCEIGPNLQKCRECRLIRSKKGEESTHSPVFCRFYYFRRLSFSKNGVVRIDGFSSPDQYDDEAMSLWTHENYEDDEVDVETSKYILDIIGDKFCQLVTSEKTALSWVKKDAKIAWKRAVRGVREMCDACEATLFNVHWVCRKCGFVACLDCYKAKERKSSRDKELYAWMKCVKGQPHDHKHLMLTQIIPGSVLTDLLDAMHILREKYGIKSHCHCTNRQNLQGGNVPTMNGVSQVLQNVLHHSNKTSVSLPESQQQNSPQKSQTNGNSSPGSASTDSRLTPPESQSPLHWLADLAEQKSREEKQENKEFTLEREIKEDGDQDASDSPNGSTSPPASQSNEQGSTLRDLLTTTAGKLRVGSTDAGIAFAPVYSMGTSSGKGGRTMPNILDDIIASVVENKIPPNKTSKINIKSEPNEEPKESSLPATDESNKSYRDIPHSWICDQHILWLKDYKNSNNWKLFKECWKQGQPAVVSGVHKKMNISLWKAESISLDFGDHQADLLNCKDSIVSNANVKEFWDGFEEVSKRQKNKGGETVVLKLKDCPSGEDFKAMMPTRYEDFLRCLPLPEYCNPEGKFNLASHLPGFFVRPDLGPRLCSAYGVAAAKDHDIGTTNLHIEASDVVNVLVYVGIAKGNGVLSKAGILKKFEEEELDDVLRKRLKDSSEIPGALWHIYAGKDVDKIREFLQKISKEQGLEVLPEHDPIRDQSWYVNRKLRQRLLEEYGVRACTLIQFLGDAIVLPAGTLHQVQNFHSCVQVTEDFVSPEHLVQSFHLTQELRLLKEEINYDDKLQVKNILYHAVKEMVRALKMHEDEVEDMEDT
UniProt P10085: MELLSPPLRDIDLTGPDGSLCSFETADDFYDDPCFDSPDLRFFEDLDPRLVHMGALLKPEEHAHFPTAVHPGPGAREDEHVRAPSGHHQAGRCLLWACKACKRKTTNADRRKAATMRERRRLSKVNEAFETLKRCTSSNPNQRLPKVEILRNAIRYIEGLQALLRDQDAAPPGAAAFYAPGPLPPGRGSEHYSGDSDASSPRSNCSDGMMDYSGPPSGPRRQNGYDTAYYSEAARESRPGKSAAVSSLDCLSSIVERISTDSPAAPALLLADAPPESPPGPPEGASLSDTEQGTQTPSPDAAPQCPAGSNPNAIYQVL

[2] = target: T1, Deltex2 (mouse (endogenous in C2C12)); assay: co-IP; lysates of C2C12 cells differentiated for 1 d; Dynabeads Protein G coated with anti-Deltex2 or anti-MyoD antibody, lysate incubated overnight at 4°C, 3 washes; western blot

| Substance | binding [1] | binding [2] |
| --- | --- | --- |
| JMJD1C (from UniProt Q69ZK6 1-2531) | binds | – |
| MyoD (from UniProt P10085 1-318) | – | binds |
